± gives the uncertainty stated by the source. The uncertainty is large for many entries.
Test: self-splicing fitness, log relative to wild type (ln ratio); higher = more splicing; Tetrahymena group I intron in knt gene, E. coli kanamycin selection, DiMSum; sequences stand for … in CUCUCU…GGAGGGAAAAGUUAUCAGGCAUGCACCUGGUAGCUAGUCUUUAAACCAAUAGAUUGCAUCGGUUUAAAAGGCAAGACCGUCAAAUUGCGGGAAAGGGGUCAACAGCCGUUCAGUACCAAGUCUCAGGGGAAACUUUGAGAUGGCCUUGCAAAGGGUAUGGUAAUAAGCUGACGGACAUGGUCCUAACCACGCAGCCAAGUCCUAAGUCAACAGAUCUUCUGUUGAUAUGGAUGCAGUUCACAGACUAAAUGUCGGUCGGGGAAGAUGUAUUCUUCUCAUAAGAUAUAGUCGGACCUCUCCUUAAUGGGAGCUAGCGGAUGAAGUGAUGCAACACUGGAGCCGCUGGGAACUAAUUUGUAUGCGAAAGUAUAUUGAUUAGUUUUGGAGUACUCGUGGUCG
Method in brief: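 DiMSum derived fitness as the error-weighted combination of fold changes across replicates, kanamycin versus no kanamycin, normalised to wild type. E. coli BL21(DE3) held the library, which randomised all eight P1ex-region intron nucleotides within the knt kanamycin-resistance gene on pET-22b(+). Six replicate transformations grew overnight at 37°C or 30°C on LB agar with or without 25 μg/mL kanamycin, also containing 100 μg/mL carbenicillin, 50 μM IPTG and 0.2% rhamnose, and pooled colonies were amplicon-sequenced on an Illumina HiSeq 2500.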

| Sequence | self-splicing fitness (ln) (30 °C) | self-splicing fitness (ln) (37 °C) |
| --- | --- | --- |
| AAAAAGCAAUAUUACGGGAG | -2.11 ± 0.11 | -1.04 ± 0.12 |
| GGCCAGCAAUAUUACGACGG | -3.72 ± 0.61 | -2.8 ± 0.53 |
| CUCAAGCAAUAUUACGAGGU | -4.9 ± 0.59 |  |
| CCAUAGCAAUAUUACGCUUC | -4.22 ± 0.73 |  |
| UUCCAGCAAUAUUACGUGCC | -3.57 ± 0.73 |  |
| GCAAAGCAAUAUUACGACGU | 0.0721 ± 0.072 | 0.116 ± 0.096 |
| GAGAAGCAAUAUUACGCCGG | -2.05 ± 0.44 | 0.0344 ± 0.4 |
| AUGGAGCAAUAUUACGAGCG | -2.91 ± 0.53 | -2.76 ± 0.76 |
| AACGAGCAAUAUUACGCAUG | -4.23 ± 0.31 | -2.76 ± 0.29 |
| AAUGAGCAAUAUUACGUAUG | -3.4 ± 0.75 |  |
| GGGGAGCAAUAUUACGAAUG | -4.04 ± 1 | -2.52 ± 0.77 |
| UGUGAGCAAUAUUACGUUUC | -2.09 ± 1.4 | -2.67 ± 1.1 |
| CGUGAGCAAUAUUACGCGCU | -3.62 ± 0.6 |  |
| CCUCAGCAAUAUUACGUACG | -1.32 ± 0.069 | -0.131 ± 0.084 |
| CCGUAGCAAUAUUACGGCUC |  | -0.629 ± 0.53 |
| GGAGAGCAAUAUUACGCGAG |  | -2.18 ± 0.76 |
| UCGGAGCAAUAUUACGUACC |  | -2.35 ± 0.77 |
| UAAUAGCAAUAUUACGCAGA | -2.85 ± 0.64 |  |
| AAGGAGCAAUAUUACGCCUC |  | -0.595 ± 1 |
| UUCUAGCAAUAUUACGAGGC | -3.86 ± 1 |  |
| CCCUAGCAAUAUUACGAUCC | -4.2 ± 0.72 |  |
| AGGGAGCAAUAUUACGACGC | -3.52 ± 0.55 |  |
| ACGGAGCAAUAUUACGGCAA | -2.98 ± 0.3 | -2.61 ± 0.27 |

| Sequence | self-splicing fitness (ln) (30 °C) | self-splicing fitness (ln) (37 °C) |
| --- | --- | --- |
| UGUUAGCAAUAUUACGCCAU | -3.21 ± 0.51 | -1.86 ± 0.66 |
| UCUGAGCAAUAUUACGAGUC |  | -2.39 ± 0.62 |
| ACGAAGCAAUAUUACGAGAA |  | -2.15 ± 0.5 |
| GCCAAGCAAUAUUACGCGGU | -3.73 ± 0.2 | -3.25 ± 0.27 |
| UCGAAGCAAUAUUACGCAAA | -4.05 ± 1 |  |
| CCAGAGCAAUAUUACGUGAA | -3.7 ± 0.16 | -2.32 ± 0.18 |
| CGCGAGCAAUAUUACGCCCU | -3.1 ± 0.29 | -2.5 ± 0.39 |
| CUCUAGCAAUAUUACGAAGC | -3.6 ± 0.73 |  |
| UUUAAGCAAUAUUACGAUCC | -3.57 ± 1 | -1.14 ± 0.64 |
| GAGCAGCAAUAUUACGCCUC | -2.37 ± 0.64 | -2.67 ± 1.1 |
| UCGCAGCAAUAUUACGAGCC | -2.98 ± 0.5 | -2.47 ± 0.76 |
| AGGCAGCAAUAUUACGCUAA | -1.05 ± 0.097 | -0.682 ± 0.11 |
| GGCGAGCAAUAUUACGCGGC | -4.04 ± 0.73 | -2.08 ± 0.58 |
| UGAGAGCAAUAUUACGGGCC | -2.77 ± 1.1 | -1.64 ± 0.6 |
| ACGGAGCAAUAUUACGGCCC | -2.03 ± 0.59 | 2.3 ± 0.73 |
| AGGAAGCAAUAUUACGUACG | -1.15 ± 0.11 | -0.064 ± 0.1 |
| GCGAAGCAAUAUUACGCCAA |  | -1.82 ± 0.39 |
| UGUAAGCAAUAUUACGCCCG | 0.0292 ± 0.63 | -0.677 ± 0.71 |
| CGUGAGCAAUAUUACGCCAU |  | -2.48 ± 1.1 |
| AAUGAGCAAUAUUACGAGGC | -4.13 ± 0.59 | -3.11 ± 0.4 |
| CUCUAGCAAUAUUACGCCCA |  | -4.47 ± 1 |
| GUGGAGCAAUAUUACGGAUA | -2.95 ± 1.1 |  |
| CCUUAGCAAUAUUACGCAAG | -4.96 ± 0.51 |  |

| Sequence | self-splicing fitness (ln) (30 °C) | self-splicing fitness (ln) (37 °C) |
| --- | --- | --- |
| AGUUAGCAAUAUUACGCUUA | -1.3 ± 0.15 | -0.343 ± 0.16 |
| GUGGAGCAAUAUUACGCGCC | -3.31 ± 0.6 | -2.36 ± 0.62 |
| UUGUAGCAAUAUUACGCAGC | -3.25 ± 0.74 | -2.5 ± 0.77 |
| UAGGAGCAAUAUUACGAGCU | -3.45 ± 0.53 |  |
| UUCGAGCAAUAUUACGUGCU |  | -3.76 ± 0.51 |
| AAUCAGCAAUAUUACGUUUG | -2.11 ± 0.092 | -1.94 ± 0.13 |
| UAUUAGCAAUAUUACGGGAC | -2.48 ± 0.54 | -2.37 ± 0.51 |
| UAUAAGCAAUAUUACGAUAC | -3.62 ± 0.61 |  |
| AGCGAGCAAUAUUACGUUUA | -4.36 ± 1 |  |
| AGACAGCAAUAUUACGAAUA | -2.38 ± 0.24 | -1.62 ± 0.19 |
| GCGAAGCAAUAUUACGUCCC | 0.592 ± 0.6 | 1.39 ± 0.83 |
| UGCGAGCAAUAUUACGAAUU | -1.78 ± 0.61 | -2.43 ± 1.1 |
| GAGUAGCAAUAUUACGCACG |  | -1.49 ± 0.53 |
| AUUAAGCAAUAUUACGAAAG | -1.89 ± 0.15 | -1.23 ± 0.16 |
| GGGGAGCAAUAUUACGUCAG |  | -1.06 ± 0.59 |
| UUGUAGCAAUAUUACGCCAA | -1.22 ± 0.13 | -0.297 ± 0.13 |
| CUUGAGCAAUAUUACGCCUU | -4.16 ± 0.59 |  |
| UCGGAGCAAUAUUACGUUGU | -3.7 ± 0.22 | -1.93 ± 0.21 |
| GCUUAGCAAUAUUACGCUAC | 0.239 ± 0.78 |  |
| GGCAAGCAAUAUUACGAGGC |  | -1.92 ± 0.58 |
| CUGGAGCAAUAUUACGCUAC | -3.77 ± 1 | -3.21 ± 0.6 |
| UAACAGCAAUAUUACGCGUG | -0.718 ± 0.041 | 0.173 ± 0.055 |
| UGGCAGCAAUAUUACGCCGC | -3.5 ± 0.64 | -2.98 ± 1.1 |

| Sequence | self-splicing fitness (ln) (30 °C) | self-splicing fitness (ln) (37 °C) |
| --- | --- | --- |
| GUGUAGCAAUAUUACGUCGC | -2.48 ± 0.26 | -2.59 ± 0.54 |
| GUAGAGCAAUAUUACGUGCC | -4.4 ± 1 |  |
| AAAUAGCAAUAUUACGCGGG | -3.02 ± 0.19 | -1.23 ± 0.12 |
| UCCUAGCAAUAUUACGUUGU | -4.51 ± 0.59 | -1.99 ± 0.29 |
| UACUAGCAAUAUUACGAGAC | -4.7 ± 0.73 |  |
| GGUAAGCAAUAUUACGUCGA | -2.41 ± 0.52 |  |
| UGAUAGCAAUAUUACGCAAC |  | -1.69 ± 0.84 |
| AGUCAGCAAUAUUACGCGUC | -2.65 ± 0.23 | -0.977 ± 0.23 |
| UAGUAGCAAUAUUACGUAGG |  | -2.14 ± 0.77 |
| AUGCAGCAAUAUUACGCCUU | -0.919 ± 0.072 | -0.304 ± 0.095 |
| GUUCAGCAAUAUUACGAACU | -3.89 ± 0.14 | -2.56 ± 0.16 |
| CUUAAGCAAUAUUACGCCAC | -1.52 ± 0.5 | -1.78 ± 0.67 |
| AUUGAGCAAUAUUACGUUUG | -4.63 ± 0.59 |  |
| GAAUAGCAAUAUUACGCAGG | -2.6 ± 0.2 | -2.28 ± 0.21 |
| CUAGAGCAAUAUUACGUCCU | -3.61 ± 0.63 | -1.43 ± 0.61 |
| GUGAAGCAAUAUUACGGGCC |  | -2.82 ± 0.61 |
| CCUAAGCAAUAUUACGCAAU | -3.49 ± 0.54 | -4 ± 0.72 |
| CCGUAGCAAUAUUACGGGAC | -4.49 ± 1 | -3.91 ± 0.52 |
| AAACAGCAAUAUUACGCCAC | -4.07 ± 0.72 |  |
| CCAGAGCAAUAUUACGCCUA | -2.9 ± 0.78 | -2.39 ± 1.1 |
| AAAGAGCAAUAUUACGCACA | -3.09 ± 0.63 |  |
| GAAAAGCAAUAUUACGCCCC | -0.912 ± 0.52 | -1.47 ± 1.2 |
| GUUCAGCAAUAUUACGACCC | -0.153 ± 0.53 | -0.669 ± 0.65 |

| Sequence | self-splicing fitness (ln) (30 °C) | self-splicing fitness (ln) (37 °C) |
| --- | --- | --- |
| AUUUAGCAAUAUUACGAAUU | -3.21 ± 0.35 | -1.85 ± 0.38 |
| UCGUAGCAAUAUUACGGAAU | -3.72 ± 0.74 |  |
| GGCCAGCAAUAUUACGCCCG |  | -1.18 ± 0.69 |
| UACGAGCAAUAUUACGCCAA |  | -2.65 ± 0.75 |
| CGGUAGCAAUAUUACGCUUA | -3.65 ± 0.52 |  |
| GCGUAGCAAUAUUACGAAAG |  | -2.3 ± 1.1 |
| GUUGAGCAAUAUUACGAUAG | -4.39 ± 1 |  |
| AGCGAGCAAUAUUACGAUCC | -2.4 ± 0.69 |  |
| UAGGAGCAAUAUUACGUCGG |  | -0.705 ± 0.65 |
| GCCUAGCAAUAUUACGGCGC | -0.67 ± 0.14 | 0.263 ± 0.18 |
| AAAUAGCAAUAUUACGCGAA | -1.42 ± 0.14 | -1.59 ± 0.16 |
| UUGUAGCAAUAUUACGUUCC |  | -0.681 ± 1 |
| GGUGAGCAAUAUUACGCAAC |  | -2.47 ± 1.1 |
| CGAGAGCAAUAUUACGGAAC |  | -1.79 ± 1.2 |
| GGCUAGCAAUAUUACGAAGG | -4.62 ± 0.73 |  |
| GUCUAGCAAUAUUACGCGAG | -1.08 ± 0.13 | 0.182 ± 0.13 |
| UCUCAGCAAUAUUACGCCAU | -4.27 ± 1 | -6.09 ± 1 |
| GUGGAGCAAUAUUACGGCAA | -3.14 ± 0.76 |  |
| UCCGAGCAAUAUUACGACAA |  | -1.3 ± 0.52 |
| GGUGAGCAAUAUUACGCAUC |  | 0.231 ± 0.68 |
| CAUAAGCAAUAUUACGUUCC | -3.94 ± 0.32 | -0.522 ± 0.77 |
| CGCGAGCAAUAUUACGGUCG | -3.27 ± 0.74 | -3.25 ± 1 |

Another view of part of the listing above.
Sequence,self-splicing fitness (ln) (30 °C),self-splicing fitness (ln) (37 °C)
AAAUAGCAAUAUUACGCGAA,-1.42 ± 0.14,-1.59 ± 0.16
UUGUAGCAAUAUUACGUUCC,,-0.681 ± 1
GGUGAGCAAUAUUACGCAAC,,-2.47 ± 1.1
CGAGAGCAAUAUUACGGAAC,,-1.79 ± 1.2

— the supplement of paper PMC7877785
